US20070098706A1 (University of Texas, published 2007)
No constants are given. Whether binding was seen depends on the method and setting. In cells and extracts the contact can be indirect. Some entries that bind do so weakly or less than the wild type. Where a sequence is shown, tags or fusion partners need not be part of it.

Sequences of proteins named here, by UniProt entry; tags and fusion partners are left off.
UniProt Q9Y5S8: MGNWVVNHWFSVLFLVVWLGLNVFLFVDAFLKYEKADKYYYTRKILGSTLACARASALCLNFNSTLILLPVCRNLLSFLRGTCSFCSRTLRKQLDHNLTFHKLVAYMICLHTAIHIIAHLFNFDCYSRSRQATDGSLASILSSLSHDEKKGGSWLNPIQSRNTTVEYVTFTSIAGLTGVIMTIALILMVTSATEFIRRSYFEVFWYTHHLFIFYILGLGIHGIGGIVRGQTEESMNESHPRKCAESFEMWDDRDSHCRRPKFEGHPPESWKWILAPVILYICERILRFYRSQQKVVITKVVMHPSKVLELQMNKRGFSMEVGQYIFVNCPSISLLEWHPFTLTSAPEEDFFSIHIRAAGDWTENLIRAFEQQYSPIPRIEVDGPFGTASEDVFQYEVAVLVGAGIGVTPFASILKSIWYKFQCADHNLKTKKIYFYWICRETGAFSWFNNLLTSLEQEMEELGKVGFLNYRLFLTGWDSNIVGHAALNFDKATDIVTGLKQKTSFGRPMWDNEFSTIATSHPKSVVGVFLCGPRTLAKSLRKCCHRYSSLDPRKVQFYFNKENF

T1: human NOX2 (human) (UniProt P04839)
T1 sequence (labeled in vitro with [35S]-methionine/[35S]-cysteine, looked up): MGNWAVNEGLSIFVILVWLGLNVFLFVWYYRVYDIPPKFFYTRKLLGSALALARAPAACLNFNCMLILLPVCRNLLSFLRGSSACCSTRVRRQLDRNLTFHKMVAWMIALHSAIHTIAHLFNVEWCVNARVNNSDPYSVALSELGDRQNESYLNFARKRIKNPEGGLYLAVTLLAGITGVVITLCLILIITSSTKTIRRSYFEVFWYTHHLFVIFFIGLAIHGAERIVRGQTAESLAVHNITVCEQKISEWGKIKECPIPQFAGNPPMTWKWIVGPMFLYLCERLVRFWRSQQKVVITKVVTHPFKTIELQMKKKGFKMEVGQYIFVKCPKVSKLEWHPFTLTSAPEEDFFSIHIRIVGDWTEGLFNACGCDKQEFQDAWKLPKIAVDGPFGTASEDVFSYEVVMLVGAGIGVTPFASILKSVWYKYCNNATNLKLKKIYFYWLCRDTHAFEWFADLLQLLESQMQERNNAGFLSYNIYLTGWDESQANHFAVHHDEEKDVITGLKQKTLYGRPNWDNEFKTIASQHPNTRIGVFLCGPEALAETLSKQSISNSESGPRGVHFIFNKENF

T2: human p47^phox (human, UniProt P14598 1-390, labeled in vitro with [35S]-methionine/[35S]-cysteine)
T2 construct: no residue limits are printed
T2 sequence (looked up): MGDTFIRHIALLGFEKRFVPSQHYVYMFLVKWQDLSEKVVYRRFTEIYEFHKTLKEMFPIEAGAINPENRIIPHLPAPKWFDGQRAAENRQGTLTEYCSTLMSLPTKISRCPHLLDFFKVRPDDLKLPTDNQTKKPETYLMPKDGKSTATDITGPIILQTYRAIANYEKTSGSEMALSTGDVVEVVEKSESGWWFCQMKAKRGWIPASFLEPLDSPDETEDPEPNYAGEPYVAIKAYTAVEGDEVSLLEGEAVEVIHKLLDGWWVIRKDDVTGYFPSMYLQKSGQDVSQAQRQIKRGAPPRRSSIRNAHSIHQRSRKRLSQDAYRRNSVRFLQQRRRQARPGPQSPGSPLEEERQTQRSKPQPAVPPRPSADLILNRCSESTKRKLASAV

B1: GST-NOXA1 (protein, not shown: a dimerising Fc or GST)
chain: MASLGDLVRAWHLGAQAVDRGDWARALHLFSGVPAPPARLCFNAGCVHLLAGDPEAALRAFDQAVTKDTCMAVGFFQRGVANFQLARFQEALSDFWLALEQLRGHAAIDYTQLGLRFKLQAWEVLHNVASAQCQLGLWTEAASSLREAMSKWPEGSLNGLDSALDQVQRRGSLPPRQVPRGEVFRPHRWHLKHLEPVDFLGKAKVVASAIPDDQGWGVRPQQPQGPGANHDARSLIMDSPRAGTHQGPLDAETEVGADRCTSTAYQEQRPQVEQVGKQAPLSPGLPAMGGPGPGPCEDPAGAGGAGAGGSEPLVTVTVQCAFTVALRARRGADLSSLRALLGQALPHQAQLGQLSYLAPGEDGHWVPIPEEESLQRAWQDAAACPRGLQLQCRGAGGRPVLYQVVAQHSYSAQGPEDLGFRQGDTVDVLCEVDQAWLEGHCDGRIGIFPKCFVVPAGPRMSGAPGRLPRSQQGDQP
B2: GST-NOXA1(SH3+) (protein, not shown: a dimerising Fc or GST)
chain: MASLGDLVRAWHLGAQAVDRGDWARALHLFSGVPAPPARLCFNAGCVHLLAGDPEAALRAFDQAVTKDTCMAVGFFQRGVANFQLARFQEALSDFWLALEQLRGHAAIDYTQLGLRFKLQAWEVLHNVASAQCQLGLWTEAASSLREAMSKWPEGSLNGLDSALDQVQRRGSLPPRQVPRGEVFRPHRWHLKHLEPVDFLGKAKVVASAIPDDQGWGVRPQQPQGPGANHDARSLIMDSPRAGTHQGPLDAETEVGADRCTSTAYQEQRPQVEQVGKQAPLSPGLPAMGGPGPGPCEDPAGAGGAGAGGSEPLVTVTVQCAFTVALRARRGADLSSLRALLGQALPHQAQLGQLSYLAPGEDGHWVPIPEEESLQRAWQDAAACPRGLQLQCRGAGGRPVLYQVVAQHSYSAQGPEDLGFRQGDTVDVLCEEPDVPLAVDQAWLEGHCDGRIGIFPKCFVVPAGPRMSGAPGRLPRSQQGDQP
B3: GST-(SH3)wt (protein, not shown: a dimerising Fc or GST)
chain: RGLQLQCRGAGGRPVLYQVVAQHSYSAQGPEDLGFRQGDTVDVLCEVDQAWLEGHCDGRIGIFPKCFVVPAGPRMSGAPGRLPRSQQGDQP

What was measured:
human NOX2 (human) = target: T1, human NOX2 (human); assay: GST pull-down of 35S-labelled NOX2, SDS-PAGE and fluorography
human p47^phox [1] = target: T2, human p47^phox; assay: GST pull-down of 35S-labelled p47phox, SDS-PAGE and fluorography
human NOX1 (human) = human NOX1 (human) (UniProt Q9Y5S8); assay: GST pull-down of 35S-labelled NOX1, SDS-PAGE and fluorography
human p47^phox [2] = target: T2, human p47^phox; assay: GST pull-down of 35S-labelled p47phox with isolated SH3-containing polypeptides
Experimental: Binding interactions are carried out between GST, GST-NOXA1, GST-NOXA1_{SH3+)}, GST-(SH3wt) and GST-(SH3+) fusion proteins immobilized on GSH-Sepharose, and the in vitro synthesized [³⁵S]-labeled target proteins. Volumes of fusion protein bacterial lysates, previously determined to give equal loading of the GSH-Sepharose, are mixed for 5 min at room temperature with 250 μl of a 50% suspension of washed GSH-Sepharose in PBS (137 mM NaCl, 2.68 mM KCl, […] Na2HPO4, pH 7.3). The suspension is washed twice and resuspended to 500 μl in PBS with 10 mM DTT. Human NOX1, NOX2, p47^phox and MBP-NOXO1₍₂₈₈₋₃₇₀₎ are synthesized and labeled in vitro with [³⁵S]-methlionine/[³⁵S]-cysteine (Redivue Pro-mix L-[³⁵S] labeling mix, Amersham Biosciences, Inc. # AGQ0080) using the TNT® Coupled Reticulocyte Lysate System (Promega) and T7 RNA polymerase. A 24 μl aliquot of the labeling reaction is mixed with 476 μl of the resuspended immobilized GST fusion protein for 15 min at room temperature. The gel pellet is washed 4X with 500 μl of PBS/10 mM DTT/0.05% Triton X-100. […] The entire volume of the denatured samples is separated on 9% SDS-PAGE and analyzed by fluorography. A sample of the original binding gel is analyzed by denaturing SDS-PAGE and Coomassie staining to confirnm the loading of the GST proteins. […]

| Binder | binding (human NOX2 (human)) | binding (human p47^phox [1]) | binding (human NOX1 (human)) | binding (human p47^phox [2]) |
| --- | --- | --- | --- | --- |
| B1 | binds | binds | binds |  |
| B2 | binds |  | binds |  |
| B3 |  |  |  | binds |
